Results on one molecule are retold here after publication PMC13462943.

The assay deals with T1, G9a, endogenous in iPSCs (human (endogenous in iPSCs)), Q96KQ7.
T1 chain: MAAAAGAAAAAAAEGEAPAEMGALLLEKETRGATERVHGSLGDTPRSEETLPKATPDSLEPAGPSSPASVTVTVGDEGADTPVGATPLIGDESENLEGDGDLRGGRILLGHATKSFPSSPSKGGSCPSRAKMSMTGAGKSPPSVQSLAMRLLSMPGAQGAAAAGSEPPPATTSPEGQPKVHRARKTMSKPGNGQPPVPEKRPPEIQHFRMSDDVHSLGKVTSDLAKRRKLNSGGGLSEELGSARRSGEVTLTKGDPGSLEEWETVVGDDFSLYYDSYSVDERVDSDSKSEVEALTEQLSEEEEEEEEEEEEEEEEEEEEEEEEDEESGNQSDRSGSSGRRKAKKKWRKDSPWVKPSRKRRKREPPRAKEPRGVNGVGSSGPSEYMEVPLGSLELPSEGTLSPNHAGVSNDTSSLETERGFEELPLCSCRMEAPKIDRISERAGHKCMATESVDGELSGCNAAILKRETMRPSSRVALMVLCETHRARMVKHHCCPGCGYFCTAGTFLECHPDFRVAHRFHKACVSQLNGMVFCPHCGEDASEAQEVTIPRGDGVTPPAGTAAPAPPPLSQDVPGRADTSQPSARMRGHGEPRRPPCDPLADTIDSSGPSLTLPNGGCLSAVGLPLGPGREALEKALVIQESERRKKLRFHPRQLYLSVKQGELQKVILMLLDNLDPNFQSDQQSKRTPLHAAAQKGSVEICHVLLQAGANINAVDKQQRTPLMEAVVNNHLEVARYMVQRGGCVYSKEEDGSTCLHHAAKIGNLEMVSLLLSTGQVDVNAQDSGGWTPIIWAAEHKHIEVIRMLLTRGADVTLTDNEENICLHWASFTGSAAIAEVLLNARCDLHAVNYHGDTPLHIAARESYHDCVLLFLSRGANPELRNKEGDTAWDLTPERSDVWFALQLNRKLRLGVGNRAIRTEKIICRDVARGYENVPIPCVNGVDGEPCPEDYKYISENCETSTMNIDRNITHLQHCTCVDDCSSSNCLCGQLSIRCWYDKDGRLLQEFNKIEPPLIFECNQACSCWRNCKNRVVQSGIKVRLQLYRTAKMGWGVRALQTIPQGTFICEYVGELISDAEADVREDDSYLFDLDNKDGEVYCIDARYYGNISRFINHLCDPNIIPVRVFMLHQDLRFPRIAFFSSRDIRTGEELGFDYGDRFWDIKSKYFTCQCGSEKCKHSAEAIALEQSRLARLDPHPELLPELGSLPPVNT
As to the kind of experiment: co-IP + affinity purification with mass spectrometry; rabbit anti-G9a on Dynabeads Protein A; whole cell extracts (100 µg) of control and patients' iPSCs, 45 min at 4 °C; washes with 200 mM NaCl, 1.5 mM MgCl2, 20 mM EDTA; eluate read by western blot (G9a, GLP) and LC-MS/MS; anti-PFAS IgG as negative control. To be noted: remark: other sources report otherwise. For orientation: In western blotting, separated proteins are transferred to a membrane and probed.

Results are given in words; binding and its absence hold for the method and conditions named. Binding seen in cells or lysates may run through a third protein. These calls come from enrichment with a bait or labelling near it, and not all partners need be listed.

B1: GLP, endogenous in iPSCs, Q9H9B1-1 1-1298 (protein)
chain: MAAADAEAVPARGEPQQDCCVKTELLGEETPMAADEGSAEKQAGEAHMAADGETNGSCENSDASSHANAAKHTQDSARVNPQDGTNTLTRIAENGVSERDSEAAKQNHVTADDFVQTSVIGSNGYILNKPALQAQPLRTTSTLASSLPGHAAKTLPGGAGKGRTPSAFPQTPAAPPATLGEGSADTEDRKLPAPGADVKVHRARKTMPKSVVGLHAASKDPREVREARDHKEPKEEINKNISDFGRQQLLPPFPSLHQSLPQNQCYMATTKSQTACLPFVLAAAVSRKKKRRMGTYSLVPKKKTKVLKQRTVIEMFKSITHSTVGSKGEKDLGASSLHVNGESLEMDSDEDDSEELEEDDGHGAEQAAAFPTEDSRTSKESMSEADRAQKMDGESEEEQESVDTGEEEEGGDESDLSSESSIKKKFLKRKGKTDSPWIKPARKRRRRSRKKPSGALGSESYKSSAGSAEQTAPGDSTGYMEVSLDSLDLRVKGILSSQAEGLANGPDVLETDGLQEVPLCSCRMETPKSREITTLANNQCMATESVDHELGRCTNSVVKYELMRPSNKAPLLVLCEDHRGRMVKHQCCPGCGYFCTAGNFMECQPESSISHRFHKDCASRVNNASYCPHCGEESSKAKEVTIAKADTTSTVTPVPGQEKGSALEGRADTTTGSAAGPPLSEDDKLQGAASHVPEGFDPTGPAGLGRPTPGLSQGPGKETLESALIALDSEKPKKLRFHPKQLYFSARQGELQKVLLMLVDGIDPNFKMEHQNKRSPLHAAAEAGHVDICHMLVQAGANIDTCSEDQRTPLMEAAENNHLEAVKYLIKAGALVDPKDAEGSTCLHLAAKKGHYEVVQYLLSNGQMDVNCQDDGGWTPMIWATEYKHVDLVKLLLSKGSDINIRDNEENICLHWAAFSGCVDIAEILLAAKCDLHAVNIHGDSPLHIAARENRYDCVVLFLSRDSDVTLKNKEGETPLQCASLNSQVWSALQMSKALQDSAPDRPSPVERIVSRDIARGYERIPIPCVNAVDSEPCPSNYKYVSQNCVTSPMNIDRNITHLQYCVCIDDCSSSNCMCGQLSMRCWYDKDGRLLPEFNMAEPPLIFECNHACSCWRNCRNRVVQNGLRARLQLYRTRDMGWGVRSLQDIPPGTFVCEYVGELISDSEADVREEDSYLFDLDNKDGEVYCIDARFYGNVSRFINHHCEPNLVPVRVFMAHQDLRFPRIAFFSTRLIEAGEQLGFDYGERFWDIKGKLFSCRCGSPKCRHSSAALAQRQASAAQEAQEDGLPDTSSAAAADPL
As for B1, the binding entry is listed as “binds”.
